# This list was built around the results that the source calls inconclusive (neither active nor inactive); the mix of calls is not that of the screen. Where the call is inconclusive, the potency comes from a doubtful curve fit. Calls of active or inactive are those of the source. The call rests on the fitted dose curve; in most records, active means well fitted inhibition curve with a large enough effect; inconclusive means small, poorly fitted or top-dose-only effect; inactive means no such curve, though single readings can be large or run the other way.
# Protein sequences, listed by entry. Tags and fused reporters are not part of them. Lines headed by an entry give the natural chain unless they say otherwise; changes in a name come on top.
# UniProt Q8WZA2: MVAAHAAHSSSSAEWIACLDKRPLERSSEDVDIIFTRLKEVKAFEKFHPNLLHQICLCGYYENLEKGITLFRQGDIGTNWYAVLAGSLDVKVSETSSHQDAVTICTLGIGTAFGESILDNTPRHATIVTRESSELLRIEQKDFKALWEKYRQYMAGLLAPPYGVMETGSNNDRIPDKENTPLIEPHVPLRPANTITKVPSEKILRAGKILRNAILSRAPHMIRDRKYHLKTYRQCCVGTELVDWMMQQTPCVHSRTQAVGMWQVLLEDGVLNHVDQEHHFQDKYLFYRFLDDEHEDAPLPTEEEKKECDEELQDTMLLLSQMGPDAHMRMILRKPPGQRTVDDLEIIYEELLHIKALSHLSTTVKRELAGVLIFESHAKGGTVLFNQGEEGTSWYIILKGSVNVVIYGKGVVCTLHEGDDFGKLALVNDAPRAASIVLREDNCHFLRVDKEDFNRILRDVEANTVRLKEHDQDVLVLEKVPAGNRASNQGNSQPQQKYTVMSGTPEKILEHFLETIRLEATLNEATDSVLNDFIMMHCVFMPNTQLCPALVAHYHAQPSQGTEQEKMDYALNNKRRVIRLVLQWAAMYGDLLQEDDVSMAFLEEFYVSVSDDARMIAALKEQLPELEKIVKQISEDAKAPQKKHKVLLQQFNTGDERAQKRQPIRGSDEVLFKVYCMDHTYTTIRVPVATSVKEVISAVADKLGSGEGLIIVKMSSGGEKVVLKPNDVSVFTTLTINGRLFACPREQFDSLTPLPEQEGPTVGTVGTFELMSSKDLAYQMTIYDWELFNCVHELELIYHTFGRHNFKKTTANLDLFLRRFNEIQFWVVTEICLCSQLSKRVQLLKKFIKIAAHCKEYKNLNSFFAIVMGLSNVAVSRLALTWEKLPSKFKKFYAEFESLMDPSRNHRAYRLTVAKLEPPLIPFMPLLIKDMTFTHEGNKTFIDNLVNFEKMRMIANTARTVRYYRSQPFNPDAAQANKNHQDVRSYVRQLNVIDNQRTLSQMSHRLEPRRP
# Target: Rap guanine nucleotide exchange factor 4 (Homo sapiens) (UniProt Q8WZA2)
# Experiment: Confirmatory qHTS for antagonist of cAMP-regulated guanine nucleotide exchange factor 4 (EPAC2) (AID 1645885); further: nearly all actives have a fitted effect of over 25% in size
# Conditions: EPAC2 Rap1B-BODIPY-GDP exchange fluorescence, biochemical; activity change, negative = inhibition: at 12.7 µM (top of the series) unless noted; series mostly up to 114 µM
# On the % scale 0 is the no-effect control and ±100 the full control effect; potency means the concentration at half of the fitted maximal effect.
Structure (SMILES),Potency,"activity change, negative = inhibition",outcome
COc1ccc(C(=O)c2ccc(OC)c(OC)c2OC)cc1,active: 7.57 µM,–,–
Cc1nc(-c2ccc(C(=O)Nc3cccc(Br)c3)cc2)cs1,"inconclusive: 95.3 µM [inhibitor, single point]",–,–
COc1ccccc1Nc1nc2ccc(C)cc2cc1C#N,"inconclusive: 0.12 µM [inhibitor, full curve, poor fit]",–,–
CCCc1nc2c3ccccc3ccn2c1CC(C)(C)C,"inconclusive: 33.8 µM [inhibitor, partial curve]",–,–
CC(=O)c1ccc(N2CCN(C(=O)/C=C/c3ccc4ccccc4n3)CC2)cc1,"inconclusive: 0.849 µM [inhibitor, partial curve, poor fit]",–,–
Cc1cccc(NC(=O)Cn2c(O)c(N=NC(=O)c3ccncc3)c3ccccc32)c1,–,inactive: 6.8% [at 114 µM],–
Cc1ccc(-c2noc(CSc3nnnn3C3CCCCC3)n2)cc1,"inconclusive: 26.9 µM [inhibitor, partial curve, poor fit]",–,–
Cc1ccc(C(=O)NCCCNC(=O)c2ccc(Cl)cc2)cn1,"inconclusive: 4.78 µM [inhibitor, partial curve, poor fit]",–,–
CSCc1cc(N(C)c2ccccc2)nc(-c2ccccc2)n1,active: 6.01 µM,–,–
C=CCn1c(Cc2ccccc2)nc2c(cnn2-c2ccccc2)c1=O,"inconclusive: 37.9 µM [inhibitor, full curve]",–,–
Cc1cc(C)nc(SCC(=O)c2ccc(F)c(C)c2)n1,"inconclusive: 1.07 µM [inhibitor, full curve, poor fit]",–,–
CCCCN(CCCC)Cc1cc(=O)oc2cc(C)c(Cl)cc12,"inconclusive: 84.9 µM [inhibitor, single point]",–,–
CC(=O)OCCNc1cc(N2CCN(C)CC2)c2noc3c2c1C(=O)c1ccccc1-3,"inconclusive: 95.3 µM [inhibitor, single point]",–,–
O=c1c2ccccc2nc(/C=C/c2cccnc2)n1CCc1ccccc1,–,inactive: -13.2% [at 114 µM],–
COc1ccc(-c2nc3n(c(=O)c2C#N)CCS3)cc1,–,inactive: -4.61%,–
COc1ccc(-c2oc3c4c2C(=O)OCCOC4CCC3)cc1 (configuration not stated),–,inactive: -23.7% [at 114 µM],–

Structure (SMILES),Potency,"activity change, negative = inhibition",outcome
COCCn1c(SCc2ccccc2F)nc2ccccc2c1=O,"inconclusive: 3.01 µM [inhibitor, partial curve, poor fit]",–,–
CC1=CC(C)(C)N(C(=O)c2ccc(F)cc2)c2cc3c(cc21)OCO3,"inconclusive: 6.75 µM [inhibitor, full curve]",–,–
COc1cc(OC)c(-c2cc(C(=O)O)ccc2OC)c(OC)c1,–,inactive: -6.81%,–
Cc1cc(=O)oc2cc(NC(=O)C(C)Oc3ccccc3)ccc12 (configuration not stated),"inconclusive: 2.69 µM [inhibitor, partial curve, poor fit]",–,–
CCCOc1ccccc1NC(=O)c1c(-c2ccccc2)noc1C,"inconclusive: 21.3 µM [inhibitor, full curve]",–,–
COc1ccc(C(C(=O)NC(C)(C)C)n2c(=O)c(-c3cc4ccccc4[nH]3)nc3ccccc32)cc1 (configuration not stated),"inconclusive: 2.13 µM [inhibitor, full curve, poor fit]",–,–
COc1ccc(/C=C2\N=C(SC)N(c3ccccc3OC)C2=O)cc1,"inconclusive: 5.36 µM [inhibitor, partial curve]",–,–
CCOc1ccc(/C=C2\SC(=S)N(NS(=O)(=O)c3ccccc3)C2=O)cc1OC,active: 37.9 µM,–,–
O=C1/C(=C\c2cc([N+](=O)[O-])ccc2O)SC(=S)N1Cc1ccc(Cl)cc1,"inconclusive: 60.1 µM [inhibitor, partial curve]",–,–
CCOc1ccccc1C(=O)N(Cc1cccs1)c1ccc(Cl)cc1,–,inactive: 15.2%,–
COc1ccc(C(C#N)N2N=C(C)CC2c2ccccc2)cc1 (configuration not stated),active: 47.8 µM,–,–
Cc1ccc(S(=O)(=O)Nc2ccccc2N2CCCCC2)cc1,–,inactive: -19.3%,–
COc1ccc(OC)c(C(=O)c2ccc(Cl)cc2)c1,"inconclusive: 1.69 µM [inhibitor, partial curve, poor fit]",–,–
CC(C)CC1C(=O)N(Cc2cn(CCC3OCCCO3)nn2)CCS(=O)(=O)N1Cc1ccc(-c2ccc(F)cc2)cc1 (configuration not stated),–,inactive: -3.48% [at 114 µM],–
COc1cccc(N(C(=O)c2ccco2)C(C(=O)NC2CCCC2)c2cccnc2)c1 (configuration not stated),"inconclusive: 95.3 µM [inhibitor, single point]",–,–
Cc1ccc(NC(=O)C2CCCN2S(=O)(=O)c2cccc3nsnc23)c(Br)c1 (configuration not stated),–,–,inactive [at 12.7 µM]

# Two entries from above, with bars between the fields.
Structure (SMILES) | Potency | activity change, negative = inhibition | outcome
COc1ccc(C(C#N)N2N=C(C)CC2c2ccccc2)cc1 (configuration not stated) | active: 47.8 µM | – | –
Cc1ccc(S(=O)(=O)Nc2ccccc2N2CCCCC2)cc1 | – | inactive: -19.3% | –
